From doi:10.1101/2020.07.02.185173

Protein sequences, listed by entry. Tags and fused reporters are not part of them. Residues count along the entry.
UniProt P36888, residues 27-993: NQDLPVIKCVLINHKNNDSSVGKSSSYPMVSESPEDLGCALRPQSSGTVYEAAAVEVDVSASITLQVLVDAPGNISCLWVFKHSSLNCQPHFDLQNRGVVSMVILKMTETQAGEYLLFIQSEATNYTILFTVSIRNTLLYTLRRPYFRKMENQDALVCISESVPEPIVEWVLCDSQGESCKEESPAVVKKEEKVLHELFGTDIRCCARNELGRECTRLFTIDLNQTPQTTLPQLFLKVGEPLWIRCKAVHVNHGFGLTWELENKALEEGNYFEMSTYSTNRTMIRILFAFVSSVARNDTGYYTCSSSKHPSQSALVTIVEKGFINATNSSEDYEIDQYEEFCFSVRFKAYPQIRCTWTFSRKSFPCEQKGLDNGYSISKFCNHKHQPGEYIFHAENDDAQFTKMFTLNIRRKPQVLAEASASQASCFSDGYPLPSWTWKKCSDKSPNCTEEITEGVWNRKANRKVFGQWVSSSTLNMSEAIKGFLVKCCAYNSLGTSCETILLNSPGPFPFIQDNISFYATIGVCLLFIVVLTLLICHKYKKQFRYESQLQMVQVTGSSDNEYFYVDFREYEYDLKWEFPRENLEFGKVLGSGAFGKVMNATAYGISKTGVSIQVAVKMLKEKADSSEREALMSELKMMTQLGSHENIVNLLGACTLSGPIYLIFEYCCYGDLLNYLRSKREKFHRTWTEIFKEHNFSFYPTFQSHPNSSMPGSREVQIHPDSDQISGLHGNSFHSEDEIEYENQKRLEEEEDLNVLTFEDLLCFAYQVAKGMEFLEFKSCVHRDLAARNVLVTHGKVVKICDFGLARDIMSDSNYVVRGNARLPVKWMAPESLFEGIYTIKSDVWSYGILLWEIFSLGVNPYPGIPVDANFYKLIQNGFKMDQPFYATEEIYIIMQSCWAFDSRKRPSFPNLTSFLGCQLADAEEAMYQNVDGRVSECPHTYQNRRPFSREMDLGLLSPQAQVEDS
UniProt P50750: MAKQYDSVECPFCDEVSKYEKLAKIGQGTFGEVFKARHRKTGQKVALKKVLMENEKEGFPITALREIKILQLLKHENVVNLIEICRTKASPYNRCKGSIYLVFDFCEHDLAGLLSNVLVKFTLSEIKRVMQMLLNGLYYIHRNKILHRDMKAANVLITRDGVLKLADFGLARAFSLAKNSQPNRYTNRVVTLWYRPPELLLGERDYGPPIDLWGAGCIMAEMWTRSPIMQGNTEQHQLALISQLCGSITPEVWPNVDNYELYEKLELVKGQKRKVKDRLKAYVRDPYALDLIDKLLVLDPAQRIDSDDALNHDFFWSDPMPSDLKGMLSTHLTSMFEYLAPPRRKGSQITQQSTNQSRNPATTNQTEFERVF
UniProt P35749: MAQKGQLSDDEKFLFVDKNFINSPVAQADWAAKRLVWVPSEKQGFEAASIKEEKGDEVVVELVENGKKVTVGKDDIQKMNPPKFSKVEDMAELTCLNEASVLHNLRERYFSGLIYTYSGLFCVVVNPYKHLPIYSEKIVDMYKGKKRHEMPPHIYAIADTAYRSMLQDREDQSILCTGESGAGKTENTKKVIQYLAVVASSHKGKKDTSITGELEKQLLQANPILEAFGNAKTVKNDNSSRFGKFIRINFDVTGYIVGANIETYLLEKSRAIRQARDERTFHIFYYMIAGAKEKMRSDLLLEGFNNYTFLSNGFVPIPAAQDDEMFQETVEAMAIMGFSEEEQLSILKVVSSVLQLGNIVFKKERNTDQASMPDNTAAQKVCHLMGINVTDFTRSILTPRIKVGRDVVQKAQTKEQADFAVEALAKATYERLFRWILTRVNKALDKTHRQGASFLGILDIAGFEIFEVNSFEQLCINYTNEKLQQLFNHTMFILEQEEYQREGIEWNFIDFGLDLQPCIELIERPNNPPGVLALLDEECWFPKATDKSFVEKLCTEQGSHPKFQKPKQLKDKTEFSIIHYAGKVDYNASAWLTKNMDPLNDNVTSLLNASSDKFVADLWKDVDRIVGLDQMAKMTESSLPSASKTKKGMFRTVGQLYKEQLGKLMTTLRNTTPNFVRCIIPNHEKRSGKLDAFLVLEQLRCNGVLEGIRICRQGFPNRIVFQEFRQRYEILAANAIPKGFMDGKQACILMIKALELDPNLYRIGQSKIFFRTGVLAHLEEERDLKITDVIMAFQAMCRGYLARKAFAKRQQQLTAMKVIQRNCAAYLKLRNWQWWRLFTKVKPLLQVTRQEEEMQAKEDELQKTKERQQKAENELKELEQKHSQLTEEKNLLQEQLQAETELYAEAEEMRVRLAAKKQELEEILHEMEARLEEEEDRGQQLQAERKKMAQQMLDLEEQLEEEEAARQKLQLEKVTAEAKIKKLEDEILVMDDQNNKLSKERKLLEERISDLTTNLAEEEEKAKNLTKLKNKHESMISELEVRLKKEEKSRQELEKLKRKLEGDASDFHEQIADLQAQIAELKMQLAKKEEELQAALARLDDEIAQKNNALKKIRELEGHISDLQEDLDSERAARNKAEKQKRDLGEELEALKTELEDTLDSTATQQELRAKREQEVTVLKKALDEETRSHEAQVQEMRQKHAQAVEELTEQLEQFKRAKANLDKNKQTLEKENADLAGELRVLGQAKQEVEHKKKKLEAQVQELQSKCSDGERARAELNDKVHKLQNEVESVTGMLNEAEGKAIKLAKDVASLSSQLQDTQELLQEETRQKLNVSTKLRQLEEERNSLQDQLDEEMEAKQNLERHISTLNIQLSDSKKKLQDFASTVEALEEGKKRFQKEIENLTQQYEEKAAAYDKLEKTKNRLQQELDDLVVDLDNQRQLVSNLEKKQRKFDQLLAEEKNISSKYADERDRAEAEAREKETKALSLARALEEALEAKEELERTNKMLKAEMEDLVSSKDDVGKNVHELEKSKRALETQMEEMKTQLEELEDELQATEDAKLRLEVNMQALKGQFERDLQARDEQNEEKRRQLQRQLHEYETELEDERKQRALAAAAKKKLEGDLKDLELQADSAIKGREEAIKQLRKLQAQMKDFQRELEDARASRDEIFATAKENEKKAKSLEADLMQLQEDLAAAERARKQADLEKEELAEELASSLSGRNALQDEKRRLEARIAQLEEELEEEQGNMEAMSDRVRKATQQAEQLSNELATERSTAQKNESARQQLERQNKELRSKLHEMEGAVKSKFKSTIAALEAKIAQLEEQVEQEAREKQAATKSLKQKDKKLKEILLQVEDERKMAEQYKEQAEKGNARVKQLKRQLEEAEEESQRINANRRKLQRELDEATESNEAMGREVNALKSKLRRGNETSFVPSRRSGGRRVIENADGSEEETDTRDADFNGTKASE

Legend:
[1] = biological target: T1, DDR2 (human) (UniProt Q16832); assay: affinity purification with mass spectrometry
T1 sequence: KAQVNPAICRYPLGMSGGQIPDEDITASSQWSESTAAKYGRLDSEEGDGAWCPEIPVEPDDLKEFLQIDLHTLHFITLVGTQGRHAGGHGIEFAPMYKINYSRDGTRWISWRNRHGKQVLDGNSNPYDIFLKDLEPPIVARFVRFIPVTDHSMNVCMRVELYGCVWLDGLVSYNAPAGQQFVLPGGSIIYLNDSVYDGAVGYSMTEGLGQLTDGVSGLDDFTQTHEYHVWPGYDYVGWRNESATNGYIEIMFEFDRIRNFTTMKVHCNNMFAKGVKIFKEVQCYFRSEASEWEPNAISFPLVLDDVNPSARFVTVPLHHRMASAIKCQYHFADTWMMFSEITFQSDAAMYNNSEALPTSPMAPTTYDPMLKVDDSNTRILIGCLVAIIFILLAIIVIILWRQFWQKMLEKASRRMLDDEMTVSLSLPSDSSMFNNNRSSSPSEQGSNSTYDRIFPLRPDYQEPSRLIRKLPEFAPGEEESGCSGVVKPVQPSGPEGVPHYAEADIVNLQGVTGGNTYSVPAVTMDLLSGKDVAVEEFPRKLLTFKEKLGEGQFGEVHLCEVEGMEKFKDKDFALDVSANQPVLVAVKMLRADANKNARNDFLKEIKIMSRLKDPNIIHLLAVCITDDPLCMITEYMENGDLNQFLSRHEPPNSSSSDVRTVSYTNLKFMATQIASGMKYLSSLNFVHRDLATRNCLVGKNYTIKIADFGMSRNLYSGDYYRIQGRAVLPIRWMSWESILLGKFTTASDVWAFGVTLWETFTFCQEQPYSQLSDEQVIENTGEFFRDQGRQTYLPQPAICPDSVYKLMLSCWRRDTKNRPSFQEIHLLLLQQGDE

[2] = biological target: FLT3 (human) (UniProt P36888); assay: affinity purification with mass spectrometry

Row | binding [1] | binding [2] | Substance
1 | binds |  | DNAH8 (from UniProt Q96JB1 1-4490)
2 |  | binds | CDK9 (from UniProt P50750 1-372) (enzyme)
3 | binds |  | DOCK1 (from UniProt Q14185 1-1865)
4 | binds |  | MYH11 (from UniProt P35749 1-1972)

These are yes or no findings as the source states them, for the method shown. Binding seen in cells or lysates may run through a third protein. These calls come from enrichment with a bait or labelling near it, and not all partners need be listed.
